Cleaved PARP in drug-treated melanoma cells

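Human melanoma cell lines in 1,536-well plates were treated with two drugs together for 72 h, then fixed, stained and imaged. Values are the share of nuclei positive for cleaved PARP as a percentage of the same share in the DMSO control: 100 is the control level, higher means more apoptosis. Every drug was used at one fixed concentration, the higher of two screened. These are primary screening values without error estimates. The marker varies much from line to line, for technical or biological reasons.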 This is part of the screen, not chosen by result. A dash means that no value is listed here.

Every entry is a combination with RKI-983 at 2 µM: C[C@@H](N)c1ccc(C(=O)Nc2ccnc3[nH]ccc23)cc1

| Partner | LB2518-MEL | A375 | WM3619 | IST-MEL1 | SK-MEL-28 | G-361 |
|---|---|---|---|---|---|---|
| CN(C)S(=O)(=O)c1ccc2c(c1)/C(=C/c1cc3c([nH]1)CCCC3)C(=O)N2 at 2 µM | 169 | - | 190 | 76.6 | 282 | 379 |
| COc1cc2ncnc(Nc3ccc(Oc4ccccc4)cc3)c2cc1OC at 10 µM | 79.6 | 128 | 147 | 80.3 | 314 | 459 |
| Nc1nc(F)nc2c1ncn2[C@@H]1O[C@H](CO)[C@@H](O)[C@@H]1O at 1 µM | 141 | 403 | 127 | 107 | 4060 | 161 |
| CCCCCCCCCCCCCCCCCCOP(=O)([O-])OC1CC[N+](C)(C)CC1 at 2 µM | 26.2 | 59.3 | 102 | 114 | 100 | 239 |
| C#Cc1cccc(Nc2ncnc3cc(OCCOC)c(OCCOC)cc23)c1 at 4 µM | 73.1 | 102 | 93.8 | 68.8 | 127 | 194 |
| O=C(O)c1ccc2c(c1)nc(Nc1cccc(Cl)c1)c1ccncc12 at 2 µM | 219 | 170 | 135 | 285 | 310 | 377 |
| COC(=O)c1sccc1S(=O)(=O)Nc1ccc(Nc2ccccc2)cc1OC at 5 µM | 58.2 | 82.6 | 85.9 | 88.6 | 40.4 | 133 |
| CN(NC(=O)CC(=O)NN(C)C(=S)c1ccccc1)C(=S)c1ccccc1 at 0.03 µM | 1610 | - | 1810 | 1150 | 690 | 908 |
| C[As](C)SC[C@H](NC(=O)CC[C@H](N)C(=O)O)C(=O)NCC(=O)O at 2 µM | 30.2 | 59.7 | 235 | 177 | 53.6 | 170 |
| O=C(O)c1ccc(-c2c[nH]c3ncc(-c4ccccc4)cc23)cc1C1CCCC1 at 0.8 µM | 89.6 | - | 98.7 | 79.1 | 155 | 205 |
| O=S(=O)(c1ccccc1)N(CC(F)(F)F)c1ccc(C(O)(C(F)(F)F)C(F)(F)F)cc1 at 7 µM | 163 | 408 | 138 | 37.4 | 235 | 333 |
| Cc1cc(SCc2sc(-c3ccc(C(F)(F)F)c(F)c3)nc2C)ccc1OCC(=O)O at 10 µM | 292 | 163 | 87.6 | 138 | 130 | 301 |
| Nc1ccn([C@@H]2O[C@H](CO)[C@@H](O)C2(F)F)c(=O)n1 at 0.002 µM | 122 | 90.9 | 190 | 186 | 72.4 | 758 |
| CC1(C)CCC(c2ccc(Cl)cc2)=C(CN2CCN(c3ccc(C(=O)NS(=O)(=O)c4ccc(N[C@H](CCN5CCOCC5)CSc5ccccc5)c(S(=O)(=O)C(F)(F)F)c4)cc3)CC2)C1 at 2 µM | 179 | 394 | 131 | 95.5 | 216 | 562 |
| Cc1cc(N2CCOCC2)cc2[nH]c(-c3c(NC[C@@H](O)c4cccc(Cl)c4)cc[nH]c3=O)nc12 at 1 µM | 134 | - | 110 | 48.9 | 99.3 | 318 |
| c1cc(-c2cnn3cc(-c4ccc(OCCN5CCCCC5)cc4)cnc23)ccn1 at 2 µM | 315 | 144 | 65.7 | 144 | 158 | 230 |
| O=C(CCCCCCC(=O)Nc1ccccc1)NO at 0.4 µM | 227 | - | 117 | 47.9 | 309 | 224 |
| OCCn1cc(-c2cnc3nnn(Cc4ccc5ncccc5c4)c3n2)cn1 at 5 µM | 559 | - | 121 | 121 | 157 | 155 |
| C[C@@H]1CCN(C(=O)CC#N)C[C@@H]1N(C)c1ncnc2[nH]ccc12 at 5 µM | 65.1 | - | 72.3 | 108 | 189 | 169 |
| CC(C)(C)c1cnc(CSc2cnc(NC(=O)C3CCNCC3)s2)o1 at 0.05 µM | 344 | - | 107 | 141 | 50.3 | 115 |
| CN1CCN(c2ccc3nc(-c4c(N)c5c(F)cccc5[nH]c4=O)[nH]c3c2)CC1 at 0.5 µM | 183 | 732 | 164 | 77.4 | 199 | 345 |
| C[C@]1(c2nc3c(C(N)=O)cccc3[nH]2)CCCN1 at 7 µM | 73.4 | 85.0 | 113 | 248 | 161 | 300 |

For reference, 3 entries once more:

Partner,LB2518-MEL,A375,WM3619,IST-MEL1,SK-MEL-28,G-361
O=C(O)c1ccc2c(c1)nc(Nc1cccc(Cl)c1)c1ccncc12 at 2 µM,219,170,135,285,310,377
OCCn1cc(-c2cnc3nnn(Cc4ccc5ncccc5c4)c3n2)cn1 at 5 µM,559,-,121,121,157,155
CN(C)S(=O)(=O)c1ccc2c(c1)/C(=C/c1cc3c([nH]1)CCCC3)C(=O)N2 at 2 µM,169,-,190,76.6,282,379

Source: doi:10.1371/journal.pone.0140310, primary screening data, rounded.